Source: PubChem BioAssay AID1259308 (NCATS, 2017)
Shown is an unselected part of about 59,000 reagents tested. About 1,510 of them (2.6%) were called active. 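Calls use total luciferase alone and ignore viability, so some active siRNAs may act by altering cell number.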 Reagents against one gene are numbered here.

Aim: 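Candidate targets for better recombinant protein yield in mammalian cells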 (primary screen)
Cell system: human HEK293 embryonic kidney cells stably expressing firefly luciferase (HEK-CMV-Luc2-Hygro)
Reagents: single siRNA against human genes, 0.8 pmol siRNA per well
Time to read-out: 72 h
Measured: 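Luciferase light (ONE-Glo) measured on one replicate plate set and viability (CellTiter-Glo) on the other, scaled to a negative control siRNA, with robust z-scores and luciferase per cell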
Direction: total luciferase, z-score and total luciferase, % of control: higher = more reporter protein produced; luciferase per cell, z-score: higher = more reporter output per viable cell; viable cells, % of control: higher = more viable cells
Call rule: 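An siRNA counts as active if its total luciferase robust z-score exceeds 3; genes with two or more such siRNAs out of three were retested with fresh siRNAs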
Calls: active = raised luciferase; inactive = no rise

no.	Target gene	reagent	total luciferase, z-score	total luciferase, % of control	luciferase per cell, z-score	viable cells, % of control	activity call
1	TAFAZZIN (tafazzin, phospholipid-lysophospholipid transacylase)	1	-0.14	79.1	-0.487	100	inactive
2	TAFAZZIN (tafazzin, phospholipid-lysophospholipid transacylase)	2	-0.832	65.3	-1.47	107	inactive
3	TAFAZZIN (tafazzin, phospholipid-lysophospholipid transacylase)	3	0.5	91.8	0.32	94.3	inactive
4	TRAPPC9 (trafficking protein particle complex subunit 9)	1	1.81	118	1.7	84.1	inactive
5	TRAPPC9 (trafficking protein particle complex subunit 9)	2	2.25	127	1.81	88	inactive
6	TRAPPC9 (trafficking protein particle complex subunit 9)	3	-1.37	54.5	-0.323	66.4	inactive
7	TSSC4 (tumor suppressing subtransferable candidate 4)	1	-1.66	48.8	-2.02	93	inactive
8	TSSC4 (tumor suppressing subtransferable candidate 4)	2	-1.15	59.1	-0.312	71.7	inactive
9	TSSC4 (tumor suppressing subtransferable candidate 4)	3	1.03	102	0.75	93.9	inactive
10	CHCHD10 (coiled-coil-helix-coiled-coil-helix domain containing 10)	1	-2.72	27.8	-2.78	64.7	inactive
11	CHCHD10 (coiled-coil-helix-coiled-coil-helix domain containing 10)	2	-0.996	62.1	1.54	46.2	inactive
12	CHCHD10 (coiled-coil-helix-coiled-coil-helix domain containing 10)	3	-0.422	73.5	-0.0162	82.5	inactive
13	DCAF6 (DDB1 and CUL4 associated factor 6)	1	2.3	128	1.86	87.4	inactive
14	DCAF6 (DDB1 and CUL4 associated factor 6)	2	0.861	99	0.136	107	inactive
15	DCAF6 (DDB1 and CUL4 associated factor 6)	3	0.0854	83.6	0.567	80.5	inactive
16	GPR52 (G protein-coupled receptor 52)	1	0.529	92.4	0.876	82	inactive
17	GPR52 (G protein-coupled receptor 52)	2	1.35	109	1.47	82.6	inactive
18	GPR52 (G protein-coupled receptor 52)	3	-0.185	78.2	0.697	72.7	inactive
19	SPDYE4 (speedy/RINGO cell cycle regulator family member E4)	1	2.91	140	2.77	75.4	inactive
20	SPDYE4 (speedy/RINGO cell cycle regulator family member E4)	2	0.763	97.1	1.01	83	inactive
21	SPDYE4 (speedy/RINGO cell cycle regulator family member E4)	3	0.37	89.2	0.489	87.7	inactive
22	ZMYND11 (zinc finger MYND-type containing 11)	1	0.514	92.1	1.3	73.1	inactive
23	ZMYND11 (zinc finger MYND-type containing 11)	2	-1.38	54.4	1.05	46.1	inactive
24	ZMYND11 (zinc finger MYND-type containing 11)	3	0.436	90.6	1.42	69.7	inactive

Laid out differently: results already given.
DCAF6 (DDB1 and CUL4 associated factor 6) #1 — total luciferase, z-score = 2.3; total luciferase, % of control = 128; luciferase per cell, z-score = 1.86; viable cells, % of control = 87.4; activity call = inactive
DCAF6 (DDB1 and CUL4 associated factor 6) #2 — total luciferase, z-score = 0.861; total luciferase, % of control = 99; luciferase per cell, z-score = 0.136; viable cells, % of control = 107; activity call = inactive
